Among all 390,000 compounds or so, about 4,000 (1%) were called active. Inconclusive means that the source gave no clear call. Such entries were picked first, then a sample of the others. The call rests on the fitted dose curve; in most records, active means well fitted inhibition curve with a large enough effect; inconclusive means small, poorly fitted or top-dose-only effect, or another doubt; inactive means no such curve, though single readings can be large or run the other way. Where the call is inconclusive, the potency comes from a doubtful curve fit.
Each compound was assayed against DNA polymerase iota (Homo sapiens) (UniProt Q9UNA4) (assay: qHTS for Inhibitors of Polymerase Iota). Conditions: Pol iota fluorescent replication assay, 10 min; series mostly up to 115 µM.
Text: DNA polymerases, such as Pol iota, are specifically involved in DNA repair. Pol iota specifically plays an important role in translesion synthesis, where the normal high-fidelity DNA polymerases cannot proceed and DNA synthesis stalls. […] Thus, while pol eta's (and most likely iota's) normal function is to protect humans against the deleterious consequences of DNA damage, under certain conditions they can have deleterious effects on human health. As a consequence, we propose to utilize a high throughput replication assay to identify small molecule inhibitors of pol iota.
In a collaboration between the National Institute of Child Health & Human Development (NICHD) and NIH Chemical Genomics Center, a high-throughput, fluorescent screen was developed to screen the NIH Molecular Libraries Small Molecule Repository (MLSMR). This screen is used to identify inhibitors of pol iota.
NIH Chemical Genomics Center [NCGC]
NIH Molecular Libraries Probe Centers Network [MLPCN]
Assay Submitter (PI): Roger Woodgate, NICHD)
Three microliters of reagents (buffer in column 3 and 4 as negative control and 10 nM Pol iota in columns 1, 2, and 5-48) will be dispensed into 1,536-well black solid-bottomed plate. Compounds (23 nL) will be transferred via Kalypsys pin tool equipped with 1536-pin array. The plates will then be incubated for 15 min at room temperature, and 1 µL substrate (50 nM final concentration) will be added to start the reaction and kinetically read twice at 0 min and 10 min on the Viewlux reader.
Potency means the concentration at half of the fitted maximal effect.

By UniProt entry, the sequences of proteins in these tests, tags left out. Where a name states a change or a piece, a line headed by the entry shows the natural chain unless it says otherwise.
UniProt Q9UNA4: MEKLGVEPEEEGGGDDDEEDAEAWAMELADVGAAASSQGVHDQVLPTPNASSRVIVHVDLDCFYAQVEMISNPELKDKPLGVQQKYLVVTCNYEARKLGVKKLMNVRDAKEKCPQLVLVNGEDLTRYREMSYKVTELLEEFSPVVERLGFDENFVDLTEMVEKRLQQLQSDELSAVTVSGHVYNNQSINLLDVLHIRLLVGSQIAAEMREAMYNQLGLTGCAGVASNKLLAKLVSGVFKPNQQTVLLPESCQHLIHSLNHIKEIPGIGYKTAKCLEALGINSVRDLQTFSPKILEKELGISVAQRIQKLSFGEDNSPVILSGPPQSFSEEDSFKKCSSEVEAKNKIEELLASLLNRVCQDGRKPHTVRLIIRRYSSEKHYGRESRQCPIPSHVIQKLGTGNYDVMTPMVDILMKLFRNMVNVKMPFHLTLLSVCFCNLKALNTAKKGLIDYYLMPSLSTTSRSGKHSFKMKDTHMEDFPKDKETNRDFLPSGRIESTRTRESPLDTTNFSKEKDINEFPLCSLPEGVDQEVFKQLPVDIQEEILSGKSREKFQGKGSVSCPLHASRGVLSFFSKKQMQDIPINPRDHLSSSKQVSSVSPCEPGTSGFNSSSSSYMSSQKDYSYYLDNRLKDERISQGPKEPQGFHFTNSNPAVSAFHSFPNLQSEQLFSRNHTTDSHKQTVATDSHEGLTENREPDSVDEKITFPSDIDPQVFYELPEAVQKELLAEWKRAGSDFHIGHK

Row | Structure (SMILES) | Potency
1 | CCn1c(SCC(=O)c2cc(C)n(CC3CCCO3)c2C)nc2ccccc21 (stereo unspecified) | inconclusive: 56.2 µM [inhibitor, partial curve, poor fit]
2 | CC(=O)c1ccc(S(=O)(=O)Nc2ccc(C(=O)N(C)CC(=O)Nc3cccc(C)c3C)cc2)cc1 | inconclusive: 63.1 µM [inhibitor, single point]
3 | C=CCn1c(COc2ccc3c(c2)CCCC3)nnc1SCC(=O)Nc1cccc(SC)c1 | inconclusive: 56.2 µM [inhibitor, partial curve, poor fit]
4 | Oc1ccccc1C1CC(c2cccs2)=NC(c2ccc(Cl)cc2)N1 (stereo unspecified) | inconclusive: 17.8 µM [inhibitor, partial curve, poor fit]
5 | Cc1ccc(-n2nc3c(N4CCC(C(=O)NCCc5ccccc5C)CC4)nnc(C)c3c2C)cc1 | inconclusive: 35.5 µM [inhibitor, partial curve, poor fit]
6 | CN1C(=O)/C(=C/c2ccc(-c3ccccc3[N+](=O)[O-])o2)SC1=Nc1ccc(Cl)c(C(=O)O)c1 | inconclusive: 14.1 µM [inhibitor, partial curve, poor fit]
7 | COc1cc(CCC(=O)OCC(=O)Nc2cccc(S(N)(=O)=O)c2)cc(OC)c1OC | inactive
8 | CCCCC1C(=O)N(c2ccccc2)N(c2ccccc2)C1=O | inconclusive: 0.0251 µM [inhibitor, full curve, poor fit]
9 | O=C(Nc1ccccc1C(=O)Nc1nnc(C(F)(F)F)s1)c1ccccc1Cl | inconclusive: 39.8 µM [inhibitor, single point]
10 | O=c1[nH]nc(CNc2ccc(O)cc2)c2ccccc12 | inconclusive: 3.98 µM [inhibitor, full curve, poor fit]
11 | CC(=C\C(=O)O)/C(=C/c1ccc(C)o1)C(=O)O | inconclusive: 12.6 µM [inhibitor, full curve, poor fit]
12 | Cc1cccc(/C=N/NC(=O)c2c(-c3ccccc3)noc2C)c1O | inconclusive: 31.6 µM [inhibitor, single point]
13 | CNC(=O)c1ccc(N(Cc2ccccc2)S(C)(=O)=O)cc1 | inconclusive: 89.1 µM [inhibitor, single point]
14 | Cc1cc(C)n2cc(CSc3nnnn3-c3ccc(Cl)cc3)nc2n1 | inconclusive: 1.78 µM [inhibitor, full curve, poor fit]
15 | CC1CCN(C(=O)c2cccc(NC(=O)c3nsc4ccccc34)c2)CC1 | inactive
16 | CCOC(=O)COc1ccc(C)cc1C(=O)c1ccn2nc(-c3ccc(F)cc3)cc2n1 | inconclusive: 89.1 µM [inhibitor, single point]
